# Laboratory results published in the supplement of paper PMC12067093, “Discovery and optimisation of a covalent ligand for TRIM25 and its application to targeted protein ubiquitination” (Chemical Science, 2025).
# This is one part of the list.
# Compound: CC1Cc2ccccc2N1C(=O)C1CCCN(C1)C(=O)CCl (mixture of isomers) [TRIM25 ligand 11 (diastereomer mixture)]
# Experiment: probe-labelled cysteine peptide fold change vs DMSO (competition) (log2 fold change); higher = less target engagement (more negative = stronger competition)
# Conditions: 10 µM; THP-1; incubation time: 4 h
# 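Also: competitive chemoproteomic profiling in live THP-1 cells with an iodoacetamide desthiobiotin (IA-DTB) probe, comparing probe-labelled peptide intensities in compound-treated cells against DMSO-treated controls.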
row,Target,probe-labelled cysteine peptide fold change
1,CPSF6_Q16630_476_VLISSLQDCLHGIESK (UniProt Q16630),-0.167
2,CSE1L_P55060_325_YDLLVSNAIQFLASVCERPHYK (UniProt P55060),-0.273
3,CSE1L_P55060_61_VCASVTFK (UniProt P55060),-0.0773
4,CTCF_P49711_577_HADNCAGPDGVEGENGGETK (UniProt P49711),0.0657
5,CTNNBL1_Q8WYA6_370_VLDHAMIGPEGTDNCHK (UniProt Q8WYA6),-0.0184
6,CPD_O75976_720_ENSQMFQGRPCK (UniProt O75976),-0.0667
7,CREBBP_Q92793_1213_KYEFSPQTLCCYGK (UniProt Q92793),0.0691
8,CROT_Q9UKG9_584_SCPETDAEK (UniProt Q9UKG9),0.149
9,CRELD1_Q96HD1_343_QMEGICVK (UniProt Q96HD1),0.0319
10,CRBN_Q96SW2_205_CQIFPSKPVSR (UniProt Q96SW2),0.172
11,CPSF2_Q9P2I0_578_QLIIVHGPPEASQDLAECCR (UniProt Q9P2I0),0.341
12,CPNE3_O75131_202_ISLNSLCYGDMDK (UniProt O75131),0.0223
13,CRABP1_P29762_96_IHCTQTLLEGDGPK (UniProt P29762),0.099
14,CTAGE5_O15320_579_GESSCDR (UniProt Q96PC5+O15320),0.042
15,CPNE3_O75131_31_SDPLCVLFLNTSGQQWYEVER (UniProt O75131),0.0773
16,CST3_P01034_123_AFCSFQIYAVPWQGTMTLSK (UniProt P01034),-0.22
17,CSTF1_Q05048_296_CITTFEK (UniProt Q05048),0.0929
18,CPSF3_Q9UKF6_655_TVECEEGSEDDESLR (UniProt Q9UKF6),0.139
19,CSNK2B_P67870_114_VYCENQPMLPIGLSDIPGEAMVK (UniProt P67870),-0.0693
20,CSTF3_Q12996_176_GCVNPMINIEQLWR (UniProt Q12996),0.0135
21,CPSF2_Q9P2I0_311_HLSLCHGLSDLAR (UniProt Q9P2I0),0.192
22,CSTF1_Q05048_178_TLYDHVDEVTCLAFHPTEQILASGSR (UniProt Q05048),0.0512
23,CTNNB1_P35222_466_AGDREDITEPAICALR (UniProt P35222),0.0391

# Same assay, conditions: 50 µM; THP-1; incubation time: 4 h
row,Target,probe-labelled cysteine peptide fold change
1,CPM_P14384_138_KPDCYYSIGR (UniProt P14384),-0.0592
2,CSK_P41240_122_ESTNYPGDYTLCVSCDGK (UniProt P41240),0.118
3,CRTAP_O75718_317_NAAPCAVSYLLFDQNDK (UniProt O75718),0.0626
4,CRYL1_Q9Y2S2_141_QCIVAHPVNPPYYIPLVELVPHPETAPTTVDR (UniProt Q9Y2S2),-0.0222
5,CPSF2_Q9P2I0_34_FLLDCGWDEHFSMDIIDSLRK (UniProt Q9P2I0),0.0034
6,CRELD2_Q6UXH1_294_EHGQCADVDECSLAEK (UniProt Q6UXH1),-0.108
7,CORO1C_Q9ULV4_283_NMQEPIALHEMDTSNGVLLPFYDPDTSIIYLCGK (UniProt Q9ULV4),0.0583
8,CRACR2A_Q9BSW2_29_GSGACLHPLDSLEQK (UniProt Q9BSW2),-0.136
9,CPQ_Q9Y646_233_IPTACITVEDAEMMSR (UniProt Q9Y646),-0.0882
10,CTNNB1_P35222_520_NLALCPANHAPLREQGAIPR (UniProt P35222),0.0914
11,CSTF2_P33240_62_GYGFCEYQDQETALSAMR (UniProt P33240),-0.471
12,CTNNA1_P35221_772_TIADHCPDSACK (UniProt P35221),-0.0902
13,CTBP2_P56545_44_DCTVEMPILK (UniProt P56545),-0.15
14,CRELD1_Q96HD1_229_CSGPEESNCLQCK (UniProt Q96HD1),-0.197
15,CSE1L_P55060_842_KICAVGITK (UniProt P55060),-0.244
16,CTCF_P49711_356_CSMCDYASVEVSK (UniProt P49711),-0.0276
17,CPSF6_Q16630_476_VLISSLQDCLHGIESK (UniProt Q16630),-0.0708
18,CSE1L_P55060_325_YDLLVSNAIQFLASVCERPHYK (UniProt P55060),-0.206
19,CSE1L_P55060_61_VCASVTFK (UniProt P55060),0.131
20,CTCF_P49711_577_HADNCAGPDGVEGENGGETK (UniProt P49711),-0.0244

row,Target,probe-labelled cysteine peptide fold change
1,CTNNBL1_Q8WYA6_370_VLDHAMIGPEGTDNCHK (UniProt Q8WYA6),-0.103
2,CPD_O75976_720_ENSQMFQGRPCK (UniProt O75976),-0.0432
3,CREBBP_Q92793_1213_KYEFSPQTLCCYGK (UniProt Q92793),-0.0234
4,CROT_Q9UKG9_584_SCPETDAEK (UniProt Q9UKG9),0.196
5,CRELD1_Q96HD1_343_QMEGICVK (UniProt Q96HD1),0.0193
6,CRBN_Q96SW2_205_CQIFPSKPVSR (UniProt Q96SW2),0.295
7,CPSF2_Q9P2I0_578_QLIIVHGPPEASQDLAECCR (UniProt Q9P2I0),0.0138
8,CPNE3_O75131_202_ISLNSLCYGDMDK (UniProt O75131),0.0292
9,CRABP1_P29762_96_IHCTQTLLEGDGPK (UniProt P29762),-0.0749
10,CTAGE5_O15320_579_GESSCDR (UniProt Q96PC5+O15320),0.548
11,CPNE3_O75131_31_SDPLCVLFLNTSGQQWYEVER (UniProt O75131),0.123
12,CST3_P01034_123_AFCSFQIYAVPWQGTMTLSK (UniProt P01034),-0.252
13,CSTF1_Q05048_296_CITTFEK (UniProt Q05048),0.14
14,CPSF3_Q9UKF6_655_TVECEEGSEDDESLR (UniProt Q9UKF6),0.0526
15,CSNK2B_P67870_114_VYCENQPMLPIGLSDIPGEAMVK (UniProt P67870),-0.262
16,CSTF3_Q12996_176_GCVNPMINIEQLWR (UniProt Q12996),0.0147
17,CPSF2_Q9P2I0_311_HLSLCHGLSDLAR (UniProt Q9P2I0),-0.283
18,CSTF1_Q05048_178_TLYDHVDEVTCLAFHPTEQILASGSR (UniProt Q05048),0.0366
19,CTNNB1_P35222_466_AGDREDITEPAICALR (UniProt P35222),0.0697
